Test results from PMC3137613.
These are yes or no findings as the source states them, for the method shown. In cells and extracts the contact can be indirect. Some entries that bind do so weakly or less than the wild type.

Amino acid sequences for entries named in this document (tags omitted).
UniProt Q92793: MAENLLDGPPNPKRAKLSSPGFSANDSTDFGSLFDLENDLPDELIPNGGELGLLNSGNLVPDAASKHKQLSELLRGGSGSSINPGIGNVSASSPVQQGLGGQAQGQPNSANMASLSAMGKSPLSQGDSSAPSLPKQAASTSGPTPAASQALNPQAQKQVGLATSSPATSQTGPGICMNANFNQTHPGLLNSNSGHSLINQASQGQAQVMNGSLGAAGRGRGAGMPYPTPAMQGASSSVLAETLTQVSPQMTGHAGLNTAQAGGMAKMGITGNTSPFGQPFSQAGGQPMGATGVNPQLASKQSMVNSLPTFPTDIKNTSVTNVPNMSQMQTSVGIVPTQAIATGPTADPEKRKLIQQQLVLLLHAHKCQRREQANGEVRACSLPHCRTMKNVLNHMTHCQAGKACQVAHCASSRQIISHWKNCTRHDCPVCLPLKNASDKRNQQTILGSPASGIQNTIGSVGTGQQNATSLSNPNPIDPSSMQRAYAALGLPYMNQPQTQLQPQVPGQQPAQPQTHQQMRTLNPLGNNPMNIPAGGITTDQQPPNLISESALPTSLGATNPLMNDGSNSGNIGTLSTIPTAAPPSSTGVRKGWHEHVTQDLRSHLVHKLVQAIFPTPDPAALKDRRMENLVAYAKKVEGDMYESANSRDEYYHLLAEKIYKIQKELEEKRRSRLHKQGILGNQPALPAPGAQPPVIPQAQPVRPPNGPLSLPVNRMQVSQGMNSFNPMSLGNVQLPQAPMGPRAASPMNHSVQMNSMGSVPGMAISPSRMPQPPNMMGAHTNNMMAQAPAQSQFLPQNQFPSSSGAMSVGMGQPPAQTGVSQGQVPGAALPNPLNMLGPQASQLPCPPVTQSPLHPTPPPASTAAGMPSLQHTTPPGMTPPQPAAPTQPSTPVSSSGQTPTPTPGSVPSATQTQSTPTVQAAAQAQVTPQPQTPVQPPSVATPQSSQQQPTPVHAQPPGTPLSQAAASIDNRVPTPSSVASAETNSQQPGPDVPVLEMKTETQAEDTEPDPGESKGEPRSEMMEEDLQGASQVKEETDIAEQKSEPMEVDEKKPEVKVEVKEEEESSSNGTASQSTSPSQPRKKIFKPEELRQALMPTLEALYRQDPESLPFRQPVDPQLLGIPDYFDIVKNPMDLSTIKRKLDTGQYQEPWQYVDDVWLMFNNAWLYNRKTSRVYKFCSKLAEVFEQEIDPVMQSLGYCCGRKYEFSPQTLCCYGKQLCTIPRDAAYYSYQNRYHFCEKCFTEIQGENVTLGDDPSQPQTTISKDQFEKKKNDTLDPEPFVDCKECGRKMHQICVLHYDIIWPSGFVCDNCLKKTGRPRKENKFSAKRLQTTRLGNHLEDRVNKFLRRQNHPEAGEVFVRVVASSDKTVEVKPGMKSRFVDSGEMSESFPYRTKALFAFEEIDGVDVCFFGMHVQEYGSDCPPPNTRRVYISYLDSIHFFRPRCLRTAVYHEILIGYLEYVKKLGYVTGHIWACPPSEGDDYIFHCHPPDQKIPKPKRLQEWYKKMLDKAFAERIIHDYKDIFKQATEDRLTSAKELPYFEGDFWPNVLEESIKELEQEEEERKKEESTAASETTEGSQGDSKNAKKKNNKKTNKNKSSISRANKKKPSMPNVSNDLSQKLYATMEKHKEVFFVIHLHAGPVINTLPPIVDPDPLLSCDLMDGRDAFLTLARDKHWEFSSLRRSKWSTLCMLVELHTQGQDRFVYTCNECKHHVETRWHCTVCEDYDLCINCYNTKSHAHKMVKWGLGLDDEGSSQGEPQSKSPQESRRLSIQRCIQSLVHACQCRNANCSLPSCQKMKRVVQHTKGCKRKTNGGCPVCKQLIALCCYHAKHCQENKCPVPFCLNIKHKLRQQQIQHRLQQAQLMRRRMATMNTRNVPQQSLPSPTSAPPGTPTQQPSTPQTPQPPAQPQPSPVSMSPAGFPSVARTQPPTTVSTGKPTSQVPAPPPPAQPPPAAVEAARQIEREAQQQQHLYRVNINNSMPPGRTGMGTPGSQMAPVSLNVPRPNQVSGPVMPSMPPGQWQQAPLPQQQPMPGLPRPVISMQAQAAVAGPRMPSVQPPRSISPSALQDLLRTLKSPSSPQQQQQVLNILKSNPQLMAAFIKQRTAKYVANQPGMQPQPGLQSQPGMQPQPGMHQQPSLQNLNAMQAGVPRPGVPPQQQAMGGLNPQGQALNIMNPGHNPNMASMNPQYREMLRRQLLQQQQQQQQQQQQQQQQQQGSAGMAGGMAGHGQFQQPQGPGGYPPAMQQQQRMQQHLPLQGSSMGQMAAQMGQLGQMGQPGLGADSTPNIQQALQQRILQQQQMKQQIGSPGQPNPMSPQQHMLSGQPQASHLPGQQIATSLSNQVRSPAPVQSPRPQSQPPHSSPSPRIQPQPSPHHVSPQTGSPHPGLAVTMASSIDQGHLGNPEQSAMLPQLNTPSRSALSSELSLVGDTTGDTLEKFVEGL

Substrate: CBP (human (endogenous in HeLa)) (UniProt Q92793)
Assay: co-IP; whole cell extracts (RIPA buffer, 1 mg total protein) of HeLa cells transfected with pCMV-NPAT; rabbit anti-CBP overnight at 4°C in 50 mM Tris-HCl pH 7.4, 150 mM NaCl, 0.25% deoxycholic acid, 1% NP-40, 1 mM EDTA, 1 mM NaF; Dynabeads protein A; blot with mouse anti-CBP or mouse anti-NPAT

binding: binds
B1: NPAT (protein, UniProt Q14207 1-1427)
chain: MLLPSDVARLVLGYLQQENLISTCQTFILESSDLKEYAEHCTDEGFIPACLLSLFGKNLTTILNEYVAMKTKETSNNVPAIMSSLWKKLDHTLSQIRSMQSSPRFAGSQRARTRTGIAEIKRQRKLASQTAPASAELLTLPYLSGQFTTPPSTGTQVTRPSGQISDPSRSYFVVVNHSQSQDTVTTGEALNVIPGAQEKKAHASLMSPGRRKSESQRKSTTLSGPHSTIRNFQDPNAFAVEKQMVIENAREKILSNKSLQEKLAENINKFLTSDNNIAQVPKQTDNNPTEPETSIDEFLGLPSEIHMSEEAIQDILEQTESDPAFQALFDLFDYGKTKNNKNISQSISSQPMESNPSIVLADETNLAVKGSFETEESDGQSGQPAFCTSYQNDDPLNALKNSNNHDVLRQEDQENFSQISTSIQKKAFKTAVPTEQKCDIDITFESVPNLNDFNQRGNSNAECNPHCAELYTNQMSTETEMAIGIEKNSLSSNVPSESQLQPDQPDIPITSFVSLGCEANNENLILSGKSSQLLSQDTSLTGKPSKKSQFCENSNDTVKLKINFHGSKSSDSSEVHKSKIEINVLEPVMSQLSNCQDNSCLQSEILPVSVESSHLNVSGQVEIHLGDSLSSTKQPSNDSASVELNHTENEAQASKSENSQEPSSSVKEENTIFLSLGGNANCEKVALTPPEGTPVENSHSLPPESVCSSVGDSHPESQNTDDKPSSNNSAEIDASNIVSLKVIISDDPFVSSDTELTSAVSSINGENLPTIILSSPTKSPTKNAELVKCLSSEETVGAVVYAEVGDSASMEQSLLTFKSEDSAVNNTQNEDGIAFSANVTPCVSKDGGYIQLMPATSTAFGNSNNILIATCVTDPTALGTSVSQSNVVVLPGNSAPMTAQPLPPQLQTPPRSNSVFAVNQAVSPNFSQGSAIIIASPVQPVLQGMVGMIPVSVVGQNGNNFSTPPRQVLHMPLTAPVCNRSIPQFPVPPKSQKAQGLRNKPCIGKQVNNLVDSSGHSVGCHAQKTEVSDKSIATDLGKKSEETTVPFPEESIVPAAKPCHRRVLCFDSTTAPVANTQGPNHKMVSQNKERNAVSFPNLDSPNVSSTLKPPSNNAIKREKEKPPLPKILSKSESAISRHTTIRETQSEKKVSPTEIVLESFHKATANKENELCSDVERQKNPENSKLSIGQQNGGLRSEKSIASLQEMTKKQGTSSNNKNVLSVGTAVKDLKQEQTKSASSLITTEMLQDIQRHSSVSRLADSSDLPVPRTPGSGAGEKHKEEPIDIIKAPSSRRFSEDSSTSKVMVPPVTPDLPACSPASETGSENSVNMAAHTLMILSRAAISRTTSATPLKDNTQQFRASSRSTTKKRKIEELDERERNSRPSSKNLTNSSIPMKKKKIKKKKLPSSFPAGMDVDKFLLSLHYDE
